# Experimental data published in PubChem BioAssay AID540276 (National Center for Advancing Translational Sciences (NCATS), 2011).
# The whole screen tested about 300,000 compounds, of which about 5,400 (1.8%) were called active. The inconclusive results got no clear call from the source; some entries with a clear call stand among them for comparison. Calls come from the whole dose curve; tested in HEK293 cells. Potencies beside an inconclusive call are fits to weak or partial responses and may not hold up.
# Assay: qHTS for inhibitors of binding or entry into cells for Marburg Virus
# Details: Marburg virus pseudotyped entry inhibition, cell reporter; series mostly up to 37.8 µM
# Potency is the fitted concentration of half-maximal effect.
row,SMILES,Potency
1,CCc1nc(SCc2ccc(Cl)cc2)n[nH]1,inactive
2,O=C(COC(=O)C1CCN(/C=C/C(=O)C(F)(F)F)CC1)Nc1ccccc1,"inconclusive: 0.1 µM [activator, full curve, poor fit]"
4,COCc1ccc(CN2CCC(Oc3ccc(C(=O)NCc4ccccn4)cc3)CC2)o1,"inconclusive: 35.5 µM [activator, single point]"
5,COCC(C)n1c(C)cc(C(=O)COC(=O)c2c(C)nn(-c3ccccc3)c2C)c1C (stereo unspecified),"inconclusive: 11.2 µM [inhibitor, partial curve]"
6,O=C(CNC(=O)c1ccc2c(c1)S(=O)(=O)N=C1CCCCCN12)Nc1ccc(F)c(F)c1,inactive
7,CC(C)Cc1cc(C(=O)Nc2sc3c(c2C#N)CCCC3)no1,inactive
8,O=C(O)c1ccc(N/N=C/c2ccc(-c3ccc(Br)cc3)o2)cc1,"inconclusive: 10 µM [inhibitor, partial curve, poor fit]"
9,Cc1c(Cl)cccc1NC(=S)NCC1COc2ccccc2O1 (stereo unspecified),"inconclusive: 20 µM [inhibitor, single point]"
10,CC(C)(C)NC(=O)/C(=C/c1ccccc1F)NC(=O)c1ccc([N+](=O)[O-])cc1,"inconclusive: 35.5 µM [inhibitor, partial curve, poor fit]"
11,CCN(CC(=O)Nc1ccc(NC(C)=O)cc1)C(=O)/C=C/c1ccc(S(=O)(=O)N2CCCCCC2)cc1,inactive
12,O=C(CSc1nc2ccccc2o1)Nc1nncs1,inactive
13,COCCn1nnnc1C(c1cccs1)N1CCN(c2nc3ccccc3s2)CC1 (stereo unspecified),"inconclusive: 29.1 µM [inhibitor, single point]"
14,O=C(CCc1ccc(S(=O)(=O)N2CCOCC2)cc1)N1CCN(Cc2ccc3c(c2)OCO3)CC1,inactive
15,CN(C)N=Nc1nc2c(c(=O)n(C)c(=O)n2C)n1CC1CO1 (stereo unspecified),"inconclusive: 11.2 µM [inhibitor, partial curve, poor fit]"
16,O=c1c(Cl)c(Cl)cnn1Cc1ccccc1Cl,active: 6.51 µM
17,N#Cc1sc2nc(-c3cccs3)cc(-c3ccc(Cl)cc3)c2c1N,"inconclusive: 11.6 µM [inhibitor, partial curve, poor fit]"
18,OCCC1CN(Cc2ccc(F)cc2Cl)CCN1CCc1ccccc1 (stereo unspecified),"inconclusive: 12.6 µM [inhibitor, partial curve, poor fit]"
19,Cc1c(-c2nnc(SCC(=O)O)n2-c2ccccc2Br)nnn1-c1ccccc1,"inconclusive: 6.31 µM [activator, single point]"
20,Cc1sc2ncnc(Sc3ccccc3C(=O)Nc3ccc(C#N)cc3)c2c1C,"inconclusive: 35.5 µM [inhibitor, single point]"
21,Oc1ccc(Cc2ccccc2)c2cccnc12,"inconclusive: 3.16 µM [inhibitor, partial curve, poor fit]"

# Taken from above:
# Value for `CC(C)(C)NC(=O)/C(=C/c1ccccc1F)NC(=O)c1ccc([N+](=O)[O-])cc1` under Potency: inconclusive: 35.5 µM [inhibitor, partial curve, poor fit]
# Value for `CCc1nc(SCc2ccc(Cl)cc2)n[nH]1` under Potency: inactive
# Value for `O=C(O)c1ccc(N/N=C/c2ccc(-c3ccc(Br)cc3)o2)cc1` under Potency: inconclusive: 10 µM [inhibitor, partial curve, poor fit]

# Following part.

row,SMILES,Potency
1,CCC(C)c1ccc(NC(=O)NCCN2CCCCC2)cc1 (stereo unspecified),"inconclusive: 31.6 µM [inhibitor, single point]"
2,COc1cnn(-c2ccc(C)cc2)c(=O)c1Br,"inconclusive: 35.5 µM [activator, partial curve, poor fit]"
3,COc1ccc(Br)cc1/C=N/NC(=O)c1cccnc1,"inconclusive: 5.62 µM [activator, partial curve, poor fit]"
4,COc1ccc(Br)cc1/C=N/NC(=O)c1cc(OC)c(OC)c(OC)c1,"inconclusive: 1.58 µM [activator, partial curve, poor fit]"
5,CC(=O)Nc1sc(N/N=C\c2cccc(Cl)c2)nc1-c1cccs1,"inconclusive: 35.5 µM [inhibitor, single point]"
6,O=C(NC(=S)Nc1ccc(N2CCOCC2)cc1)c1cccc(Cl)c1,"inconclusive: 6.31 µM [activator, single point]"
7,COCCCNC(=O)/C(C#N)=C/c1c(N2CCN(C)CC2)nc2c(C)cccn2c1=O,"inconclusive: 6.31 µM [inhibitor, single point]"
8,COc1ccc(-c2nc(-c3ccccn3)ncc2S(C)(=O)=O)cc1,inactive
9,CC(C)(C)c1ccc(Oc2nc3ccccn3c(=O)c2/C=C(\C#N)c2nc3ccccc3[nH]2)cc1,"inconclusive: 1.41 µM [activator, partial curve, poor fit]"
10,O=Cc1s/c(=N\S(=O)(=O)c2ccccc2)n(CCCCl)c1Cl,"inconclusive: 35.5 µM [inhibitor, single point]"
11,Cn1ccnc1SCC(=O)Nc1cccc(S(=O)(=O)N2CCCCCC2)c1,"inconclusive: 3.16 µM [inhibitor, single point]"
12,CCOCCOC(=O)c1[nH]c2c(c1C)C(=O)CC(c1ccccc1)C2 (stereo unspecified),"inconclusive: 1.26 µM [inhibitor, full curve, poor fit]"
13,CCN1CCN(CC(=O)Nc2ccc(N(C)C)cc2)CC1,"inconclusive: 1.26 µM [activator, full curve]"
14,CC(C)NC(=O)CC(=O)Nc1ccc2nc3n(c(=O)c2c1)CCCCC3,"inconclusive: 14.1 µM [activator, single point]"
15,COC(CNC(=O)C(=O)Nc1cc2c3c(c1)CC(=O)N3CCC2)OC,"inconclusive: 3.98 µM [activator, partial curve, poor fit]"
16,CCc1ccc2oc(=O)cc(CN3CCC(C)CC3)c2c1,"inconclusive: 0.116 µM [inhibitor, full curve, poor fit]"
17,COc1cccc(OCC(O)CN2CCN(c3ccccn3)CC2)c1 (stereo unspecified),"inconclusive: 0.0794 µM [inhibitor, full curve, poor fit]"
18,O=C(c1ccc(F)cc1)N1CCC(c2nc3ccccc3o2)CC1,"inconclusive: 2.24 µM [activator, single point]"
19,CC1(C)CC(=O)C(C=Nc2ccc(Cl)cn2)=C(O)C1,"inconclusive: 2.51 µM [activator, full curve, poor fit]"
20,Cn1cc(CN2CCCC(C(=O)Nc3cccc(-c4cc5ccccc5[nH]4)c3)C2)cn1 (stereo unspecified),"inconclusive: 6.31 µM [inhibitor, full curve, poor fit]"
